These are yes or no findings as the source states them, for the method shown. Some results given as binding are weak or reduced against the parent protein; the word gives no strength. Tags and fused reporters may be left off the sequences shown.
Experiments:
[1] = target: hen egg lysozyme (hen) (UniProt P00698); assay: ELISA on immobilised HEL, tAK activity (luminescence) as read-out, BSA as background control
[2] = target: hen egg lysozyme (hen) (UniProt P00698); assay: ELISA: plate coated with 10 ug/ml HEL, probed with heat-treated 10 ug/ml fusion, tAK luminescence read-out
[3] = target: hen egg lysozyme (hen) (UniProt P00698); assay: ELISA: HEL dilutions 5-500 nM coated on Maxisorp plate, probed with 10 ug/ml fusion, tAK luminescence read-out
[4] = target: hen egg lysozyme (hen) (UniProt P00698); assay: ELISA: HEL dilutions on Maxisorp plate, probed with fusion treated with 0, 1, 4 or 8M urea; limits of detection unchanged

Measured: binding

B1: SacAK-F3-VNAR fusion protein (Sulfolobus acidocaldarius adenylate kinase, [GGGGS]3 flexible linker F3, hen egg lysozyme specific shark VNAR) (VNAR)
chain: MLATALKLGYAKDRDEMRKLSVEKQKKLQIDAAKGIAEEARAGGEGYLFIDTHAVIRTPSGYLPGLPSYVITEINPSVIFLLEADPKIILSRQKRDTTRNRNDYSDESVILETINFARYAATASAVLAGSTVKVIVNVEGDPSIAANEIIRSMKQSTGGGGSGGGGSGGGGSGSARVDQTPRSVTKETGESLTINCVLRDASYALGSTCWYRKKSGSTNEESISKGGRYVETVNSGSKSFSLRINDLTVEDGGTYRCGLGVAGGYCDYALCSSRYAECGDGTAVTVN
binds: all assays above
